Results are given in words; binding and its absence hold for the method and conditions named. Some results given as binding are weak or reduced against the parent protein; the word gives no strength.
Biological target: T1, IFNAR2-S (short isoform of Interferon Alpha And Beta Receptor Subunit 2) (human)
T1 sequence: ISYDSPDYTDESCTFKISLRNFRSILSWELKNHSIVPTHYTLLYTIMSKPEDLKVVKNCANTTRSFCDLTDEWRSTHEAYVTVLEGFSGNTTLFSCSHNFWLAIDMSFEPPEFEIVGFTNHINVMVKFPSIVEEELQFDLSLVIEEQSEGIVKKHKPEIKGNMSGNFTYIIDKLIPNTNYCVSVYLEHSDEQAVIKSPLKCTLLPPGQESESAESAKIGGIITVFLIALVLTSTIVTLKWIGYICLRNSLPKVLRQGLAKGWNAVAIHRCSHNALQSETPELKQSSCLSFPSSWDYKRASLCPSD
Assay: ELISA of residual IFNb in culture media of wild-type and IFNAR2 isoform KO HeLa lines after 24 h and 48 h with 1 U/ml IFNb

Amino acid sequences for entries named in this document (tags omitted). Residues count along the entry.
UniProt P01574, residues 22-187: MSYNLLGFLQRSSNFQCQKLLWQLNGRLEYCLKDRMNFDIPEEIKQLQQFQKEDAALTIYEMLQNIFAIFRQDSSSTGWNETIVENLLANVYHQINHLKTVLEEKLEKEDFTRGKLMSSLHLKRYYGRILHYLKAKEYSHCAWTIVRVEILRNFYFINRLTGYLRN

binding: binds
Substance: IFNb (type I interferon beta) (from UniProt P01574 22-187) (ligand)
